From publication PMC8129138
Results are given in words; binding and its absence hold for the method and conditions named. In cells and extracts the contact can be indirect. Some binding calls cover weakened binding; strength is not graded here. For some of these results: Tags and fused reporters may be left off the sequences shown.

Chains of the proteins cited; added tags and fusions are not shown. Lines headed by an entry give the natural chain unless they say otherwise; changes in a name come on top.
UniProt Q9H1P3: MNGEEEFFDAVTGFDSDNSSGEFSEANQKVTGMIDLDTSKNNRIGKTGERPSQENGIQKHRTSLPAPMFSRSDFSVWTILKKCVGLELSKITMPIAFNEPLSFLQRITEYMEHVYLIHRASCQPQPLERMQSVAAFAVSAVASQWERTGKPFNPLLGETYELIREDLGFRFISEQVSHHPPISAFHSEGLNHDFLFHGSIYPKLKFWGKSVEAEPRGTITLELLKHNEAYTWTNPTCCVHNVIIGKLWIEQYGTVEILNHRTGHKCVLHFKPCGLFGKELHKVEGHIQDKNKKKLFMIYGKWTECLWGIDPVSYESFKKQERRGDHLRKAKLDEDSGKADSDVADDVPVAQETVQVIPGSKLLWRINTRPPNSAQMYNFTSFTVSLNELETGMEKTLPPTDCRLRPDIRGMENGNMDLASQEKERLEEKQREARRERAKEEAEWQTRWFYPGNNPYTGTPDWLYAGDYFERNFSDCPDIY
UniProt P35222: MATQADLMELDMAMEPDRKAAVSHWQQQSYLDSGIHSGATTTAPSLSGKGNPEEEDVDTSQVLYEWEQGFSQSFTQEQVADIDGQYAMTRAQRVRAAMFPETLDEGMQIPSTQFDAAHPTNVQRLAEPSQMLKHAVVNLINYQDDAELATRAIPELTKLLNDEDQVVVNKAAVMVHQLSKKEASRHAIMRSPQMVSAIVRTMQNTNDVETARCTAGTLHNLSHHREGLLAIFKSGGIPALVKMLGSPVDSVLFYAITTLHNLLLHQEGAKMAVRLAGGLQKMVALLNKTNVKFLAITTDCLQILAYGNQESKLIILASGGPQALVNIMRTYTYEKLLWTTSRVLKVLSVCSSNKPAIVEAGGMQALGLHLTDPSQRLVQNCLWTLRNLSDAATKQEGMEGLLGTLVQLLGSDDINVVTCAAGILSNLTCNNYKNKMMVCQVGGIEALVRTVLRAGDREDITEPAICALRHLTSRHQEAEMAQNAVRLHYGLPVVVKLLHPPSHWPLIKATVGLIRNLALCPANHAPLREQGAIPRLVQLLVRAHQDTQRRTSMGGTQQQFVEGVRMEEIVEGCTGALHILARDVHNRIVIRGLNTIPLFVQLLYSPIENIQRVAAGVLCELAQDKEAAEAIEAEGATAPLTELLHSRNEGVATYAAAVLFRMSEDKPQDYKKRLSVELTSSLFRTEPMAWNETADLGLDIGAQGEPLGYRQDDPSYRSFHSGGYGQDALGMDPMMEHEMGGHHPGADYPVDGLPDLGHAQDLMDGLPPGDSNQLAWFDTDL
UniProt Q02248: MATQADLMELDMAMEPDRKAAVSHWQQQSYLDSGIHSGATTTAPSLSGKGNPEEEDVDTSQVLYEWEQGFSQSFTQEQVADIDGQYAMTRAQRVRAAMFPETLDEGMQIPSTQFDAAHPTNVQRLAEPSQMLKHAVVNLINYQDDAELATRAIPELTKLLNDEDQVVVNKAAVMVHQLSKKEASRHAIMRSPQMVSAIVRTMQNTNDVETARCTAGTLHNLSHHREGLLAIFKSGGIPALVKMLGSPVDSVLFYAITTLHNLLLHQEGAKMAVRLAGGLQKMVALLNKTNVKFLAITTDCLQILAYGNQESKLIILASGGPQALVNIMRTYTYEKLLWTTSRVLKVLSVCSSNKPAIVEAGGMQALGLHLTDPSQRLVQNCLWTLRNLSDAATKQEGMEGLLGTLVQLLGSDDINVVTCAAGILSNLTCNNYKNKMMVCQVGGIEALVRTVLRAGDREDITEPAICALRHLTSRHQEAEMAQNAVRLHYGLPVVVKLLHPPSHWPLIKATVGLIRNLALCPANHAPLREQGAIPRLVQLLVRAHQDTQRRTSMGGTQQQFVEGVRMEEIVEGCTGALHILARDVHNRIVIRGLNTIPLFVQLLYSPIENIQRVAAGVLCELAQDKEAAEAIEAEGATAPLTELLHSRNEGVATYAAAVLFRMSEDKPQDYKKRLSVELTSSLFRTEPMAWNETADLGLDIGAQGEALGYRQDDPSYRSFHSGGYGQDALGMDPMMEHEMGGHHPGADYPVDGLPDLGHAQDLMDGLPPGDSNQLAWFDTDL

What was measured:
[1] = biological target: FLAG-tagged OSBPL2 (oxysterol-binding protein-like 2) (UniProt Q9H1P3); assay: co-IP; HEK293T cells co-transfected for 48 h with HA-tagged β-catenin or its truncated fractions and FLAG-tagged OSBPL2 or ORD; RIPA lysis buffer with 0.2 mM PMSF; overnight with anti-FLAG-tag M2 affinity gel at 4 °C; western blotting
[2] = biological target: T1, FLAG-tagged OSBPL2 expressed from the FLAG-tagged Osbpl2 plasmid in 3T3-L1 preadipocytes (UniProt Q8BX94); assay: co-IP; 3T3-L1 preadipocytes transfected with FLAG-tagged Osbpl2 plasmid for 48 h; FLAG-tagged OSBPL2 with endogenous β-catenin
T1 sequence: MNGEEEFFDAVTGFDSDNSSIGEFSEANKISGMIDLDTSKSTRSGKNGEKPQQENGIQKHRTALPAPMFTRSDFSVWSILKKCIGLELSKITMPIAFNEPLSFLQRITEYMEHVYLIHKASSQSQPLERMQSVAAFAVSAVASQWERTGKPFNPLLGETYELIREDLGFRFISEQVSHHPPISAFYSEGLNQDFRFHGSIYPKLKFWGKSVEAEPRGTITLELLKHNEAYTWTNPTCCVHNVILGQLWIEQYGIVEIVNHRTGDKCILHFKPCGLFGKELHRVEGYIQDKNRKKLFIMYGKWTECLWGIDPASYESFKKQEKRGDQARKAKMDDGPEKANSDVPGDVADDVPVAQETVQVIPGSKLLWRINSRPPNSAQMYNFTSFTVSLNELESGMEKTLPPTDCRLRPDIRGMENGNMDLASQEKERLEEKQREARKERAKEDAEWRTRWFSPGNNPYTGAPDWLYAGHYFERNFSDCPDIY

binding [1]	binding [2]	Substance
binds		HA-tagged C-terminal fraction of β-catenin (aa 432–781) (from UniProt P35222 432-781) (domain or fragment)
binds		HA-tagged SRP fraction of β-catenin (aa 142–431) (from UniProt P35222 142-431) (domain or fragment)
binds		HA-tagged β-catenin (from UniProt P35222 1-781)
	binds	endogenous β-catenin of 3T3-L1 preadipocytes (from UniProt Q02248 1-781)
